Measured values reported in PubChem BioAssay AID743255 (National Center for Advancing Translational Sciences (NCATS), 2014).
The campaign covered roughly 390,000 compounds. About 910 (0.23%) were called active. This list was built around the results that the source calls inconclusive (neither active nor inactive); the mix of calls is not that of the screen. Calls come from the whole dose curve; as a rule, active = well fitted inhibition curve with a large enough effect; inconclusive = small, poorly fitted or top-dose-only effect; inactive = no such curve, though single readings can be large or run the other way. Potencies beside an inconclusive call are fits to weak or partial responses and may not hold up.

Chains of the proteins cited; added tags and fusions are not shown. Lines headed by an entry give the natural chain unless they say otherwise; changes in a name come on top.
UniProt O94782: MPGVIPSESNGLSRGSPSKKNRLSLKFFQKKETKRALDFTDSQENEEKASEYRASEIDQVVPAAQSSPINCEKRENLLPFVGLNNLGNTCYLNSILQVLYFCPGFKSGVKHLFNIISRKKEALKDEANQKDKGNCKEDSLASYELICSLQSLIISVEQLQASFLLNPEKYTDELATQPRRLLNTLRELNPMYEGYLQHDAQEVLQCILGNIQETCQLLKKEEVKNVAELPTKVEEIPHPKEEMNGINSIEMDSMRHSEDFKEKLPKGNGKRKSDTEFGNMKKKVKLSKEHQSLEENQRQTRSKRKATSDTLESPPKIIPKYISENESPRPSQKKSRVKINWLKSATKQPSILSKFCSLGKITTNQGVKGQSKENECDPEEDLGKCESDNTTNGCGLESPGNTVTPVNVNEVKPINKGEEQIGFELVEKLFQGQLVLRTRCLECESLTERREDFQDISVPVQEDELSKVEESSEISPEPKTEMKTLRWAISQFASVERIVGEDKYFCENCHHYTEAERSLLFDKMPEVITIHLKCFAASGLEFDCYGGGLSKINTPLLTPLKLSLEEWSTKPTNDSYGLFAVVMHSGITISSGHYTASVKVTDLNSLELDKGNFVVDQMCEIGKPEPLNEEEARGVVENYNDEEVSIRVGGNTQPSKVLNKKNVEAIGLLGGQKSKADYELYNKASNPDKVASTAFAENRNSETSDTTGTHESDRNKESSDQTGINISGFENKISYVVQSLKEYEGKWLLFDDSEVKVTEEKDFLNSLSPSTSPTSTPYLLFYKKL

target: Ubiquitin carboxyl-terminal hydrolase 1 (Homo sapiens) (UniProt O94782); test: Inhibitors of USP1/UAF1: Primary Screen; conditions: recombinant USP1/UAF1, Ub-Rhodamine cleavage fluorescence; activity change, negative = inhibition: at 57.1 µM (top of the series); note: nearly all actives have a fitted effect of over 60% in size
Text: Deubiquitinating enzymes (DUBs) are a class of enzymes that can cleave isopeptide bond formed between the C-terminal carboxylate of ubiquitin and a lysine side-chain amino group on the target protein. Among them, ubiquitin specific proteases (USPs) constitute the largest DUB family. Human USPs are emerging as promising targets for pharmacological intervention because of their connection to a number of human diseases, including prostate, colon and breast cancer (1, 2), pediatric acute lymphoblastic leukemia (3), and familial cylindromatosis (4). The advantage of inhibiting USPs lies in the potential specificity of therapeutic intervention that can lead to better efficacy and reduce nonspecific side effects. In a collaboration between the University of Delaware and the NIH Chemical Genomics Center, a high-throughput screen assay was developed to screen for USP1/UAF1 inhibitors. This miniaturized assay has a fluorescent read-out and is used to screen the NIH Molecular Libraries Small Molecule Repository (MLSMR) in order to identify a small molecule that inhibits USP1. NIH Chemical Genomics Center [NCGC] NIH Molecular Libraries Probe Centers Network [MLPCN] MLPCN Grant: DA030552 Assay Submitter (PI): Zhihao Zhuang, University of Delaware 1. Priolo, C., et al. (2006) The isopeptidase USP2a protects human prostate cancer from apoptosis. Cancer Res 66, 8625-8632 2. Popov, N., et al. (2007) The ubiquitin-specific protease USP28 is required for MYC stability. Nat Cell Biol 9, 765-774 3. De Pitta, C., et al. (2005) A leukemia-enriched cDNA microarray platform identifies new transcripts with relevance to the biology of pediatric acute lymphoblastic leukemia. Haematologica 90, 890-898 4. Kovalenko, A., et al. (2003) The tumour suppressor CYLD negatively regulates NF-kappaB signalling by deubiquitination. Nature 424, 801-805
3 microliters of reagents (buffer in columns 3 and 4 as negative control and 1nM USP1/UAF1 complex in columns 1, 2, and 5-48) are dispensed into Greiner black solid bottom 1536-well assay plates. Compounds are then transferred via Kalypsys pin tool equipped with 1536-pin array (10nl slotted pins, V&P Scientific, San Diego, CA). Following an incubation step of 15 min at room temperature, 1ul of Ub-Rho substrate (150nM final concentration) is added to initiate the reaction. The plates are immediately centrifuged at 1000 rpm for 15 seconds, and subsequently transferred to a ViewLux high-throughput CCD imager (PerkinElmer) wherein kinetic measurements of fluorescence are acquired using 480 nm excitation/540 nm emission filter set (6 reads every 60 seconds, see Table 1). All reagents are diluted in an assay buffer consisting of 50mM HEPES (pH 7.8), 0.5mM EDTA, 0.1 mg/ml BSA, 1mM TCEP, and 0.01% Tween-20.
% is set by controls: 0 for no effect and ±100 for the full control effect; potency is the fitted concentration of half-maximal effect.

Row | Structure (SMILES) | Potency | activity change, negative = inhibition
1 | CC(C)CCNC(=O)c1cn(CC(C)C)c(=O)c2c1c1ccccc1n2C | inactive | –
2 | COc1cc(OC)c2cc(C(=O)N[C@H](C(=O)N3CCC[C@H]3C(=O)O)C(C)C)n(C)c2c1 | inconclusive: 15.8 µM [inhibitor, partial curve, poor fit] | –
3 | COC(=O)Nc1nc2ccc(-c3n[nH]c(=O)c4ccccc34)cc2[nH]1 | inconclusive: 44.7 µM [inhibitor, partial curve, poor fit] | –
4 | O=C(CCC1N=C2c3ccccc3N=C(SCc3cccc(F)c3)N2C1=O)NC1CCCCC1 (stereo not drawn) | inconclusive: 35.5 µM [inhibitor, partial curve] | –
5 | O=[N+]([O-])c1ccc(O)c2ncccc12 | inconclusive: 28.2 µM [inhibitor, single point] | –
6 | CC(C)(C)c1ccc(-c2noc(CCC(=O)NCc3ccco3)n2)cc1 | inactive | –
7 | COC(=O)c1ccc(OCC(O)CN2CCC(C)CC2)cc1 (stereo not drawn) | inconclusive: 0.355 µM [inhibitor, full curve, poor fit] | –
8 | Cc1cccc(-n2c(O)c(C=Nc3cccc(O)c3)c3ccccc3c2=O)n1 | inactive | –
9 | Cn1cnc2c(=O)[nH]cc([N+](=O)[O-])c21 | inconclusive: 31.6 µM [inhibitor, partial curve] | –
10 | Cc1ccccc1/C=C\c1nc2ccccc2c(=O)n1Cc1ccccc1 | inconclusive: 0.794 µM [inhibitor, full curve, poor fit] | –
11 | CCS(=O)(=O)c1nc(S(=O)(=O)c2ccc(C)cc2)c(NCc2ccc(Cl)cc2)s1 | inactive | –
12 | COc1cc(/C=C2/S/C(=N/S(=O)(=O)Cc3ccccc3)NC2=O)c([N+](=O)[O-])cc1OC | inconclusive: 39.8 µM [inhibitor, partial curve, poor fit] | –
13 | O=C(Nc1ccc2c(c1)CCC2)c1cnc(Cl)c(Cl)c1 | inactive | –
14 | Cc1ccc(C)c(NC(=S)NCCCN2CCOCC2)c1 | inconclusive: 5.62 µM [inhibitor, partial curve, poor fit] | –
15 | COc1ccccc1Cn1c(CNS(=O)(=O)c2ccc(CC(C)C)cc2)nc2cccnc21 | inconclusive: 50.1 µM [inhibitor, partial curve, poor fit] | –
16 | Cc1ccc(CCNC(=O)c2cc3cc4cc(C)ccc4nc3s2)cc1 | inconclusive: 70.8 µM [inhibitor, partial curve, poor fit] | –
17 | COc1ccc(-c2cc3ccccc3oc2=O)cc1NC(=S)NC(=O)c1ccc2c(c1)OCCO2 | inconclusive: 7.08 µM [inhibitor, partial curve] | –
18 | CC1SCC(NC(=O)c2cccc(Cl)c2)CS1 (stereo not drawn) | inconclusive: 2.24 µM [inhibitor, partial curve] | –
19 | COc1ccc(NC(=O)CSc2nc(-c3ccc(OC)cc3)cc(=O)[nH]2)cc1 | inconclusive: 0.141 µM [inhibitor, full curve] | –
20 | CCC1CN(C(=O)N2CCC(C(=O)NCc3cc(OC)ccc3OC)CC2)c2ccccc2O1 (stereo not drawn) | inactive | –
21 | N=c1nc(N2CCCCC2)cc(N)n1O | inconclusive: 39.8 µM [inhibitor, partial curve] | –
22 | Cc1ccc(NC(=O)c2nc(S(=O)(=O)Cc3cccc(C)c3)ncc2Cl)cc1 | inconclusive: 50.1 µM [inhibitor, partial curve, poor fit] | –
23 | Cc1cc(C)n(-c2ncc(-c3ccccc3)nn2)n1 | inconclusive: 44.7 µM [inhibitor, partial curve] | –

Row | Structure (SMILES) | Potency | activity change, negative = inhibition
24 | CCOc1ccccc1N1CC(C(=O)N2CCc3ccccc3C2)CC1=O (stereo not drawn) | inactive | –
25 | NC(=O)CCN1CCCCC1 | inactive | –
26 | COc1ccc(OC)c(CNC(=O)c2cc(-c3ccc(Cl)s3)nc3ccccc23)c1 | inconclusive: 20 µM [inhibitor, partial curve, poor fit] | –
27 | COc1cc(-c2nc3n(n2)C(c2ccc(F)cc2)C(C(N)=O)=C(C)N3)cc(OC)c1OC (stereo not drawn) | inconclusive: 50.1 µM [inhibitor, single point] | –
28 | Cc1cccn2c(Nc3ccc4c(c3)OCCO4)c(-c3ccc(Br)o3)nc12 | inconclusive: 17.8 µM [inhibitor, partial curve] | –
29 | O=C(Nc1cccc(Cl)c1Cl)c1cc2nc(-c3ccc4c(c3)OCO4)cc(C(F)(F)F)n2n1 | inconclusive: 3.16 µM [inhibitor, partial curve] | –
30 | Cc1cc2cc(CCNC(=O)CC(C)(C)C)c(=O)[nH]c2cc1C | inconclusive: 50.1 µM [inhibitor, partial curve, poor fit] | –
31 | CCC/C=C(\CCC)C(NS(=O)(=O)c1cccc2cccnc12)c1ccc(C(=O)OC)cc1 (stereo not drawn) | inconclusive: 44.7 µM [inhibitor, partial curve, poor fit] | –
32 | Cn1c(=O)c2nc(SCCO)n(C)c2n(C)c1=O | inconclusive: 5.62 µM [inhibitor, partial curve] | –
33 | N/C(=N\OC(=O)c1ccc2ccccc2c1)c1ccccc1Cl | – | inconclusive: -36% [inhibitor]
34 | Cc1cccc(NC(=O)NC2COc3ccccc3C2)c1C (stereo not drawn) | inactive | –
35 | Cc1nc2c3ccccc3nc(NNC(=O)CCC(=O)N3CCCC(C)C3)n2n1 (stereo not drawn) | inactive | –
36 | COc1cccc(-c2ncc3ccccc3c2COC(=O)c2ccc(F)cc2)c1 | inconclusive: 39.8 µM [inhibitor, partial curve, poor fit] | –
37 | COc1ccc2c(c1)-c1nc(/N=C/c3ccc(O)c(OC)c3)sc1CC2 | inactive | –
38 | O=S(=O)(c1ccc2ccccc2c1)N1CCN(Cc2ccccn2)CC1 | inactive | –
39 | COc1cc(CNCCc2ccccc2)cc(Br)c1OCC(=O)Nc1ccccc1C | inactive | –
40 | Cc1ccc(CCNC(=O)c2ccc(CNS(=O)(=O)c3ccc(C)cc3)cc2)cc1 | inconclusive: 39.8 µM [inhibitor, partial curve] | –
41 | CCCN1CCCc2cc(CN)ccc21 | active: 15.8 µM | –
42 | COc1ccc(CNc2nc(-c3ccco3)nn2C(=O)CC(C)C)cc1 | inconclusive: 0.708 µM [inhibitor, full curve] | –
43 | Cc1cccnc1NC(=S)NC(=O)c1cccs1 | inactive | –
44 | CCOC(=O)CSc1nc(C(C)(C)C)nc2ccccc12 | inconclusive: 39.8 µM [inhibitor, partial curve, poor fit] | –
45 | CCOC(=O)N1CCN(c2nc(-c3ccc(Cl)cc3)cs2)CC1 | inconclusive: 17.8 µM [inhibitor, partial curve] | –
46 | COc1ccc(-c2cc3nc(C)c(CCC(=O)Nc4ccc(F)cc4F)c(C)n3n2)c(OC)c1 | inconclusive: 3.55 µM [inhibitor, full curve] | –

Row | Structure (SMILES) | Potency | activity change, negative = inhibition
47 | O=C(N/N=C/c1cc(Br)cc(Br)c1O)c1ccncc1 | inconclusive: 44.7 µM [inhibitor, single point] | –
48 | CN1CCN(C(=O)C2=C[C@H](c3coc4ccccc4c3=O)C[C@H](OCc3ccc(CO)cc3)O2)CC1 | inconclusive: 44.7 µM [inhibitor, partial curve] | –
49 | Cc1ccccc1C(=O)Nc1cccc(-c2cn3cccnc3n2)c1 | inconclusive: 5.62 µM [inhibitor, single point] | –
50 | CC(C)(C)c1c(Cl)c(O)c(-c2ccccc2)c(=O)n1-c1ccccc1 | inactive | –
51 | CCCC(O)(c1ccc(Cl)cc1)C(CN1CCOCC1)c1ccccc1 (stereo not drawn) | inconclusive: 39.8 µM [inhibitor, partial curve] | –
52 | O=c1cc(-c2nn[nH]n2)[nH]c(=O)[nH]1 | inconclusive: 1.12 µM [inhibitor, partial curve] | –
53 | COc1ccc(-c2nc(NC(=O)c3c(C)noc3C)sc2C)cc1 | inconclusive: 0.316 µM [inhibitor, full curve] | –
54 | Cc1ccc(C)c(-c2csc(-c3cccnc3)n2)c1 | inconclusive: 44.7 µM [inhibitor, partial curve, poor fit] | –
55 | O=[N+]([O-])c1ccc2c(c1)OCCOCCOCCOCCOCCOCCO2 | inactive | –
56 | Cc1ncc(C[n+]2ccc(C)c(C)c2)c(N)n1 | inconclusive: 100 µM [inhibitor, partial curve, poor fit] | –
57 | CN(C)c1ccc(C(=O)N/N=C/c2cc(Br)cc(Br)c2O)cc1 | inconclusive: 0.447 µM [inhibitor, full curve, poor fit] | –
58 | CCCCn1nc(C(=O)N(C)Cc2nc3ccccc3c(=O)[nH]2)c2ccccc2c1=O | inconclusive: 0.251 µM [inhibitor, full curve, poor fit] | –
59 | Cc1cc(C)c2nc(SCC(=O)NCC3CCCO3)c(C#N)cc2c1 (stereo not drawn) | inconclusive: 28.2 µM [inhibitor, single point] | –
60 | O=C1NCCSC1c1ccccc1 (stereo not drawn) | inconclusive: 7.94 µM [inhibitor, single point] | –
61 | CC1=CC(C)(C)N(C(=O)CN2C(=O)CCC2=O)c2ccc(C)cc21 | inactive | –
62 | COc1cc(CN2CCCC(CO)(Cc3ccccc3C)C2)cc2c1OCO2 (stereo not drawn) | inactive | –
63 | CCCN1CCC(=O)N(CCSc2ccc(NC(C)=O)cc2)CC1 | inconclusive: 0.251 µM [inhibitor, full curve, poor fit] | –
64 | CN(C)c1ccc(C(=O)C=Cc2ccc([N+](=O)[O-])cc2)cc1 | inconclusive: 4.47 µM [inhibitor, partial curve] | –
65 | Cc1ccc(C)c(N(C)C(=O)CCNC(=O)Cn2cnc3ccccc3c2=O)c1 | inconclusive: 0.126 µM [inhibitor, full curve, poor fit] | –
66 | CC(C)CCc1c(O)nc(SCC(C)C)[nH]c1=O | inconclusive: 2 µM [inhibitor, partial curve] | –
67 | Cc1ccc(S(=O)(=O)NN=C2CCCc3ccccc32)cc1 | inconclusive: 8.91 µM [inhibitor, full curve] | –
68 | O=C(OCc1nnc(-c2ccccc2)o1)c1ccc([N+](=O)[O-])s1 | inconclusive: 31.6 µM [inhibitor, partial curve, poor fit] | –

An excerpt from above in order of heavy-atom count, descending:
Row | Structure (SMILES) | Potency | activity change, negative = inhibition
29 | O=C(Nc1cccc(Cl)c1Cl)c1cc2nc(-c3ccc4c(c3)OCO4)cc(C(F)(F)F)n2n1 | inconclusive: 3.16 µM [inhibitor, partial curve] | –
27 | COc1cc(-c2nc3n(n2)C(c2ccc(F)cc2)C(C(N)=O)=C(C)N3)cc(OC)c1OC (stereo not drawn) | inconclusive: 50.1 µM [inhibitor, single point] | –
39 | COc1cc(CNCCc2ccccc2)cc(Br)c1OCC(=O)Nc1ccccc1C | inactive | –
40 | Cc1ccc(CCNC(=O)c2ccc(CNS(=O)(=O)c3ccc(C)cc3)cc2)cc1 | inconclusive: 39.8 µM [inhibitor, partial curve] | –
65 | Cc1ccc(C)c(N(C)C(=O)CCNC(=O)Cn2cnc3ccccc3c2=O)c1 | inconclusive: 0.126 µM [inhibitor, full curve, poor fit] | –
8 | Cc1cccc(-n2c(O)c(C=Nc3cccc(O)c3)c3ccccc3c2=O)n1 | inactive | –
42 | COc1ccc(CNc2nc(-c3ccco3)nn2C(=O)CC(C)C)cc1 | inconclusive: 0.708 µM [inhibitor, full curve] | –
61 | CC1=CC(C)(C)N(C(=O)CN2C(=O)CCC2=O)c2ccc(C)cc21 | inactive | –
57 | CN(C)c1ccc(C(=O)N/N=C/c2cc(Br)cc(Br)c2O)cc1 | inconclusive: 0.447 µM [inhibitor, full curve, poor fit] | –
67 | Cc1ccc(S(=O)(=O)NN=C2CCCc3ccccc32)cc1 | inconclusive: 8.91 µM [inhibitor, full curve] | –
13 | O=C(Nc1ccc2c(c1)CCC2)c1cnc(Cl)c(Cl)c1 | inactive | –
54 | Cc1ccc(C)c(-c2csc(-c3cccnc3)n2)c1 | inconclusive: 44.7 µM [inhibitor, partial curve, poor fit] | –
25 | NC(=O)CCN1CCCCC1 | inactive | –
